The campaign covered roughly 320,000 compounds. About 740 (0.23%) were called active. The shares of active, inactive and inconclusive entries below differ from those in the screen. Calls follow the shape of the dose curve; as a rule, active = well fitted activation curve with a large enough effect; inconclusive = small, poorly fitted or top-dose-only effect; inactive = no such curve, though single readings can be large or run the other way. Where the call is inconclusive, the potency comes from a doubtful curve fit.
Assay: qHTS Assay for Small Molecule Inhibitors of Mitochondrial Division or Activators of Mitochondrial Fusion; also: nearly all actives have a fitted effect of over 45% in size
Conditions: S. cerevisiae fusion-defective mutant growth rescue, CellTiterGlo 48 h; series mostly up to 46.1 µM
From the text: NIH Chemical Genomics Center [NCGC] NIH Molecular Libraries Probe Production centers Network [MLPCN] MLPCN Grant: MH081279-01 Assay Submitter (PI): Jodi M. Nunnari NCGC Assay Overview: The budding yeast S. cerevisiae is a powerful system to study mitochondrial fusion. Unlike other organisms, yeast cells without functional mitochondrial DNA (mtDNA) can be propagated and studied as long as they maintain a mitochondrial compartment and are provided with a fermentable carbon source. When mitochondrial fusion is blocked in yeast, mitochondrial tubules rapidly fragment and division continues unopposed. Under conditions where fusion is compromised in mammalian cells, nearly identical changes in mitochondrial structure have been observed. Thus, these findings indicate that steady state mitochondrial structure in cells is a characteristic and specific indicator of fusion activity. Mounting evidence has pointed to a connection between mitochondrial dynamics and apoptosis in mammalian cells. These studies indicate that in mammalian cells mitochondrial dynamics are more integrated into cellular processes than in yeast cells and have evolved not only to distribute the organelle but also to aid in the regulation of cellular homeostasis. Mitochondrial fusion proteins attenuate apoptosis by inhibiting the release of cytochrome c from mitochondria, in part by controlling cristae structures. Thus, small molecules that inhibit mitochondrial […] may promote apoptosis and potentially act as novel chemotherapeutics and stimulation of apoptosis has become an attractive target of anti-cancer therapies. To identify inhibitors of mitochondrial division, we exploit the growth phenotypes of mitochondrial fusion-defective mutants. The temperature sensitive fusion alleles, such as fzo1-1 and mgm1-5, cause mitochondrial membranes to fragment in cells under non-permissive conditions and cells lose mtDNA, and are unable to grow in the presence of non-fermentable carbon source glycerol. Inhibiting mitochondrial division rescues growth. We have developed and optimized a luminescence cell viability assay in 1536 well format for the identification of inhibitors in the yeast mitochondrial fusion-defective assay.
The yeast glycerol stocks where kindly supplied by the laboratory of Dr. Jodi Nunnari, University of California, Davis. All yeast glycerol stock solutions were stored in single use aliquots at -80C. The CellTiterGlo luminescence reagent, containing luciferase and luciferin, were purchased from Promega, and the reagents were stored according to manufacturer's instructions. The Buffer components for the YPEG yeast growth medium were purchased from Sigma-Aldrich (St. Louis, MO). YPEG growth medium: 1% (w/v) yeast extract, 2% (w/v) Bacto-peptone, 3% Ethanol, 3% glycerol, 0.4mM Tryptophan, 0.36mM Adenine. qHTS Assay Protocol: 1.#Dispense 2.5 ul yeast growth medium per 1536 well plate. 2.#Transfer 23 nl per well of compound to plate. 3.#Dispense 2.5 ul yeast solution at appropriate seeding density per well. 4.#Incubate for 48 hours at 37C. 5.#Dispense 5 ul of CellTiterGlow solution per well. 6.#Incubate at ambient for 10 minutes. 7.#Read using bio-luminescence protocol on Viewlux.
With `COC(=O)c1cc(Br)c(=O)n(-c2ccccn2)c1` the Potency was “inactive”.
In the case of `Cc1cc(C)c2c(N)c(C(=O)Nc3ccccc3C(F)(F)F)sc2n1`, the Potency is reported as “inactive”.
With `c1ccc2[nH]c(CSc3nnc(-c4ccncc4)o3)nc2c1` the Potency was “inactive”.
With `COc1ccc(C(=O)C[n+]2ccccc2C)cc1` the Potency was inconclusive: 35.5 µM [activator, single point].
For `CC(Sc1nc2ccccc2n1C)C(=O)NC(c1ccccc1)c1ccccc1` (configuration not stated), the Potency was inconclusive: 35.5 µM [activator, single point].
With `CCOc1cc(/C=C/c2nc3ccccc3s2)ccc1OCC(=O)N1CCOCC1` the Potency was inconclusive: 31.6 µM [activator, single point].
In the case of `COc1ccccc1CNC(=O)C1CC(c2ccccc2C(F)(F)F)=NO1` (configuration not stated), the Potency is reported as inconclusive: 11.2 µM [activator, partial curve].
With `O=C1/C(=C/c2ccncc2)Oc2cc(OS(=O)(=O)c3ccccc3)ccc21` the Potency was “inactive”.
With `COc1ccc(-n2nc3c(c2NC(=O)CCl)CSC3)cc1` the Potency was inconclusive: 11.2 µM [activator, partial curve].
In the case of `CNc1ccccc1C(C)(C)c1cc(-c2ccco2)n[nH]1`, the Potency is reported as inconclusive: 35.5 µM [activator, single point].
For `Clc1ccc(N2CCN(Cc3ccco3)CC2)cc1`, the Potency was “inactive”.
With `CCOC(=O)c1oc2ccccc2c1COC(=O)CNC(=O)c1ccccc1OC` the Potency was inconclusive: 22.4 µM [activator, single point].
In the case of `O=C1c2ccc(Cl)cc2S(=O)(=O)c2cccc(C(=O)N3CCN(c4ccc(Cl)cn4)CC3)c21`, the Potency is reported as inconclusive: 14.1 µM [activator, single point].
With `O=C(c1cccc(COc2cccc3ccccc23)c1)N1CCCC1` the Potency was inconclusive: 17.8 µM [activator, single point].
For `N#C/C(=C/c1ccc(-c2ccc(Br)cc2)o1)C(=O)NC1CCCCC1`, the Potency was inconclusive: 11.2 µM [activator, partial curve].
With `Cc1nnc(SCc2c(Cl)cccc2Cl)s1` the Potency was “inactive”.
For `CC(=O)N1CCC(N(CCN2CCOCC2)C(=S)Nc2ccc(C)cc2)CC1`, the Potency was inconclusive: 31.6 µM [activator, single point].
In the case of `NC(=O)C1CCN(C(=O)COc2ccc(S(=O)(=O)NC3CCCC3)cc2)CC1`, the Potency is reported as “inactive”.
With `CC1(C)Cn2c(nnc2-c2cccc(O)c2)S1` the Potency was inconclusive: 6.31 µM [activator, single point].
With `Nc1nc(NCc2ccco2)nc(N2CCCCCC2)c1[N+](=O)[O-]` the Potency was inconclusive: 7.94 µM [activator, partial curve].
In the case of `Cc1ccsc1-c1nc(CSCC(=O)N2CCN(c3ccccc3)CC2)c(C)o1`, the Potency is reported as inconclusive: 11.2 µM [activator, partial curve].
With `Oc1ccc(Cl)cc1-c1cc(-c2ccccc2Cl)[nH]n1` the Potency was inconclusive: 10 µM [activator, partial curve].
In the case of `Cc1ccc(NC(=O)CSCC(=O)N(C)CCOc2ccc(Cl)cc2)cc1`, the Potency is reported as inconclusive: 15.8 µM [activator, single point].
For `Cn1ncc2c(Nc3cccc(Cl)c3)nc(Nc3cccc(Cl)c3)nc21`, the Potency was inconclusive: 3.16 µM [activator, partial curve].
With `CC(C)(C)n1nnnc1C(c1cccc(C#N)c1)N1CCC(Cc2ccccc2)CC1` (configuration not stated) the Potency was inconclusive: 14.1 µM [activator, partial curve].
With `Cn1c(C(=O)N2CCc3ccccc3C2)cc2oc3ccccc3c21` the Potency was inconclusive: 28.2 µM [activator, single point].
In the case of `COCCn1nnnc1C(c1cccs1)N1CCN(c2cc(C)ccc2C)CC1` (configuration not stated), the Potency is reported as inconclusive: 15.8 µM [activator, partial curve].
In the case of `CCCCn1nc(NC(=O)CC)c2cc3cc(OC)ccc3nc21`, the Potency is reported as inconclusive: 20 µM [activator, partial curve].
In the case of `CCCN1C(=O)/C(=C/c2c(N3CCNC(=O)C3CC(=O)OC)nc3c(C)cccn3c2=O)SC1=S` (configuration not stated), the Potency is reported as inconclusive: 5.01 µM [activator, single point].
With `O=[N+]([O-])c1ccc(N2CCCC2)cc1NC1CC1` the Potency was inconclusive: 11.2 µM [activator, partial curve].
For `CCn1c(SCC(=O)N2CCN(c3cccc(Cl)c3)CC2)nc2ccccc2c1=O`, the Potency was inconclusive: 15.8 µM [activator, partial curve].
For `O=C(N/N=C/c1ccc(OC(=O)c2ccc(Br)cc2)cc1)c1ccncc1`, the Potency was “inactive”.
In the case of `COc1ccc(-n2c(CCc3ccccc3)nnc2SCC(=O)c2ccc(Cl)cc2)cc1`, the Potency is reported as inconclusive: 35.5 µM [activator, single point].
For `CN1C(=O)C2C=CC1C1C(=O)N(c3ccccc3)C(=O)C21` (configuration not stated), the Potency was active: 6.31 µM.
With `CC(=O)c1ccc(S(=O)(=O)NC2CCCCCCC2)cc1` the Potency was inconclusive: 35.5 µM [activator, partial curve, poor fit].
For `C=CCc1cccc2cc(C(=O)OCC)c(=O)oc12`, the Potency was inconclusive: 11.2 µM [activator, partial curve].
With `COC(OC)c1ccc(C#N)c(SCc2ccccc2)n1` the Potency was “inactive”.
With `COc1cc(C(=O)NCC2CCCO2)ccc1OCc1ccc(Cl)cc1Cl` (configuration not stated) the Potency was inconclusive: 22.4 µM [activator, partial curve].
In the case of `Cc1cccc(Nc2c3c(nc4ccccc24)CCC3)c1`, the Potency is reported as inconclusive: 28.2 µM [activator, single point].
For `COc1cc(-c2nc(C(F)(F)F)c(OC)o2)cc(OC)c1OC`, the Potency was inconclusive: 35.5 µM [activator, single point].
With `Cc1nn(C)c(C)c1N1C(=O)c2cccc3c(N)ccc(c23)C1=O` the Potency was “inactive”.
With `COc1cccc(OCC(=O)O/N=C(\N)c2ccc(OC)c(OC)c2)c1` the Potency was “inactive”.
With `C/C(N)=C(/C#N)C(=O)CSc1nc(C2CCCCC2)n(-c2ccccc2)n1` the Potency was inconclusive: 3.98 µM [activator, partial curve].
For `COCCn1c(C2CCCCC2)nc2sc3ccccc3c(=O)c2c1=O`, the Potency was inconclusive: 2.51 µM [activator, full curve].
With `O=C(c1cc2c(s1)-c1ccccc1OC2)N1CCc2ccccc2C1` the Potency was inconclusive: 31.6 µM [activator, single point].
In the case of `Cc1c(C(=O)O)sc2nc(-c3cccs3)cc(C(F)(F)F)c12`, the Potency is reported as inconclusive: 11.2 µM [activator, partial curve].
With `O=C1NCN(CCO)CN1` the Potency was “inactive”.
With `Cc1ccc(CCNC(=O)CN2C(=O)COc3ccc(S(=O)(=O)N4CCCCC4)cc32)cc1` the Potency was inconclusive: 0.501 µM [activator, partial curve, poor fit].
In the case of `COc1ccc2oc(C(=O)OCC(=O)Nc3ccccc3)c(C)c2c1`, the Potency is reported as “inactive”.
With `CCOC(=O)c1c(-c2ccc(F)cc2)csc1NC(=O)CCN1CCOCC1` the Potency was active: 11.2 µM.
With `C=CCSc1nc(N)c(C#N)c(-c2ccc(C)cc2)c1C#N` the Potency was inconclusive: 10 µM [activator, partial curve].
With `Cc1cc(OCC(=O)Nc2cnn(CCCC(=O)O)c2)ccc1Cl` the Potency was inconclusive: 3.16 µM [activator, partial curve].
In the case of `Cc1ccc(S(=O)(=O)c2cc(O)ccc2O)cc1C`, the Potency is reported as “inactive”.
In the case of `CN1CC(=O)N/C1=N/C(=O)Nc1cccc(Cl)c1`, the Potency is reported as inconclusive: 14.6 µM [activator, partial curve].
In the case of `COc1ccc(C)c2sc(N(CCN(C)C)C(=O)/C=C/c3cccs3)nc12`, the Potency is reported as “inactive”.
In the case of `O=C1NC(Cc2c[nH]c3ccccc23)C(=O)N1CCOc1ccc(F)cc1` (configuration not stated), the Potency is reported as “inactive”.
In the case of `CC1CC(C)CN(c2ncc3c(n2)CC(c2ccccc2)CC3=O)C1` (configuration not stated), the Potency is reported as inconclusive: 1 µM [activator, full curve, poor fit].
For `Cc1ccc(-c2csc(NC(=O)/C=C/c3cccs3)n2)cc1C`, the Potency was inconclusive: 8.91 µM [activator, partial curve].
With `O=S(=O)(c1ccccc1)N1CCC(Oc2ccc(-n3cnnn3)cc2)CC1` the Potency was active: 35.5 µM.
For `CCn1c(SCc2ccc(OC)c(F)c2)nc2ccccc2c1=O`, the Potency was “inactive”.
With `CCC(C)(C)NC(=O)C(c1ccc(C)cc1)N(Cc1cccs1)C(=O)c1ccc2c(c1)OCCO2` (configuration not stated) the Potency was inconclusive: 11.2 µM [activator, partial curve].
In the case of `COc1ccc(-c2cc3nc(-c4ccccc4)cc(N4CCCC(O)C4)n3n2)cc1` (configuration not stated), the Potency is reported as inconclusive: 12.6 µM [activator, partial curve].
For `O=C(Nc1cccnc1)c1ccc(COc2ccccc2Br)cc1`, the Potency was inconclusive: 15.8 µM [activator, single point].
With `COc1ccccc1N1CCN(C(=O)c2cc(=O)c3c(C)cc(C)cc3o2)CC1` the Potency was inconclusive: 3.16 µM [activator, single point].
In the case of `CCOc1ccc(CCNC(=O)c2ccc(CS(=O)(=O)Cc3ccccc3Cl)o2)cc1OCC`, the Potency is reported as “inactive”.
For `COc1cc(C(Nc2ccc3c(c2)OCO3)C(=O)NC2CCCCC2)cc(OC)c1OC` (configuration not stated), the Potency was “inactive”.
For `O=C(NNC(=O)c1ccc2ccccc2c1O)c1cccs1`, the Potency was “inactive”.
With `O=C(Nc1nc(-c2ccco2)c(-c2ccco2)s1)c1ccc(F)cc1F` the Potency was “inactive”.
With `O=C1C=C(c2ccc(F)c(Cl)c2)C[C@@H](c2ccc(F)cc2)C1` the Potency was inconclusive: 12.6 µM [activator, single point].
For `Cc1ccc(NC(=O)c2cccc3cccnc23)cc1`, the Potency was inconclusive: 15.8 µM [activator, single point].
For `Nc1c(Br)c(=O)[nH]c(=O)n1-c1ccc(F)cc1`, the Potency was “inactive”.
For `CCCCCC(=O)c1c(C)[nH]c(C(=O)OCC)c1C`, the Potency was inconclusive: 31.6 µM [activator, single point].

Reference: PubChem BioAssay AID485298 (National Center for Advancing Translational Sciences (NCATS), 2010)
Potency is read from the fitted curve at half-maximal effect.
